Test results from US20190029989A1, “BOWEL CARE USING IONTOPHORESIS” (priority 2016, published 2019).
Some of these results come from one statement about several compounds together.

Tested on: Persons with SCI
Assay: Bowel evacuation score by video fluoroscopy after IV bolus in thirteen subjects (Example 3)
Type: in vivo, human
Settings: IV bolus 2 mg neostigmine alone or with 0.4 mg glycopyrrolate
Protocol: Thirteen (13) persons with SCI (5 quadriplegics, 8 paraplegics) with a mean age of 46 years (range 25-69) and mean duration of injury of 16 years (range 1-31) were treated. None of the subjects had known heart disease and/or history of arrhythmias.
On separate days, subjects were given by IV bolus either (i) 2 mg neostigmine alone, (ii) a combination of 2 mg neostigmine and 0.4 mg glycopyrrolate, or (iii) normal saline. Subjects were blinded to the type of infusion being delivered. The effect of these infusions on bowel evacuation was assessed semi-quantitatively on a scale of 0 (no evacuation) to 4+(complete evacuation) using video fluoroscopy after rectal instillation of a barium-oatmeal paste having a consistency similar to that of stool. Blood pressure, heart rate and other vital signs were monitored in each subject. In addition, airway resistances were determined in each subject using the forced oscillation technique (as described, for example, in Goldman, Pulm. Pharmacol. Ther., 14(5):341-350, 2001). Total airway resistance was determined using 5 Hz forced oscillations, and central airway resistance was determined using 20 Hz forced oscillations.
This response received a 0 (zero) bowel evacuation score. FIGS. 1B-1E show progressively increasing bowel evacuation responses in different subjects. […]

## CN(C)C(=O)Oc1cccc([N+](C)(C)C)c1 [neostigmine]
  time of evacuation post infusion (range): 5 to 20 min
